This is an account of results in the supplement of paper PMC11732987, “Enantioselective OTUD7B fragment discovery through chemoproteomics screening and high-throughput optimisation” (Communications Chemistry, 2025).

By UniProt entry, the sequences of proteins in these tests, tags left out. Where a name states a change or a piece, a line headed by the entry shows the natural chain unless it says otherwise. Residues count along the entry.
UniProt P40855: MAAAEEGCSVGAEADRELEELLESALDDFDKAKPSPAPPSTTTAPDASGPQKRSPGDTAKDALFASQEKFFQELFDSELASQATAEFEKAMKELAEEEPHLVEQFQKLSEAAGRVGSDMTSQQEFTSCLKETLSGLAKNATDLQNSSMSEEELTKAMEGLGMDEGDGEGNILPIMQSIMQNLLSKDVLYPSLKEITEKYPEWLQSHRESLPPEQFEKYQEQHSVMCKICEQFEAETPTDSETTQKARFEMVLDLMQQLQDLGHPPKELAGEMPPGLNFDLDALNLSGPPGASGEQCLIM
UniProt O95453: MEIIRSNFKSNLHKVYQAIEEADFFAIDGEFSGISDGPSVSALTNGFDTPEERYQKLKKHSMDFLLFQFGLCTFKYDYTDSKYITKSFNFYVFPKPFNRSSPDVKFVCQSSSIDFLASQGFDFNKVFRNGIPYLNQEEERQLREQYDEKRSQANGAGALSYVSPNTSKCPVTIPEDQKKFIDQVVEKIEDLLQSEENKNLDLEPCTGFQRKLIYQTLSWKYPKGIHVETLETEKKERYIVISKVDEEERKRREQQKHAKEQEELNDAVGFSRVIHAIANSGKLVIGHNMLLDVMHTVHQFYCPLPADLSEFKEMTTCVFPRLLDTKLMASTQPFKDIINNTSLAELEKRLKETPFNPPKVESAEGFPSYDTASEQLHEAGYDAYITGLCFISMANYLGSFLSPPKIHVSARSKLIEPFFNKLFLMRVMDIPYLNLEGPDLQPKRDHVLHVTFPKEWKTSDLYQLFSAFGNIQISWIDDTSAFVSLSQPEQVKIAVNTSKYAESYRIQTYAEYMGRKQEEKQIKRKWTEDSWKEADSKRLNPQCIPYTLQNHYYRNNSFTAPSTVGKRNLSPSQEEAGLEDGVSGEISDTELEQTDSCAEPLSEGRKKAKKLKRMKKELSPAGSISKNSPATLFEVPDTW
UniProt Q8WUM4, 518-541: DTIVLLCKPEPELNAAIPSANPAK
UniProt Q29RF7: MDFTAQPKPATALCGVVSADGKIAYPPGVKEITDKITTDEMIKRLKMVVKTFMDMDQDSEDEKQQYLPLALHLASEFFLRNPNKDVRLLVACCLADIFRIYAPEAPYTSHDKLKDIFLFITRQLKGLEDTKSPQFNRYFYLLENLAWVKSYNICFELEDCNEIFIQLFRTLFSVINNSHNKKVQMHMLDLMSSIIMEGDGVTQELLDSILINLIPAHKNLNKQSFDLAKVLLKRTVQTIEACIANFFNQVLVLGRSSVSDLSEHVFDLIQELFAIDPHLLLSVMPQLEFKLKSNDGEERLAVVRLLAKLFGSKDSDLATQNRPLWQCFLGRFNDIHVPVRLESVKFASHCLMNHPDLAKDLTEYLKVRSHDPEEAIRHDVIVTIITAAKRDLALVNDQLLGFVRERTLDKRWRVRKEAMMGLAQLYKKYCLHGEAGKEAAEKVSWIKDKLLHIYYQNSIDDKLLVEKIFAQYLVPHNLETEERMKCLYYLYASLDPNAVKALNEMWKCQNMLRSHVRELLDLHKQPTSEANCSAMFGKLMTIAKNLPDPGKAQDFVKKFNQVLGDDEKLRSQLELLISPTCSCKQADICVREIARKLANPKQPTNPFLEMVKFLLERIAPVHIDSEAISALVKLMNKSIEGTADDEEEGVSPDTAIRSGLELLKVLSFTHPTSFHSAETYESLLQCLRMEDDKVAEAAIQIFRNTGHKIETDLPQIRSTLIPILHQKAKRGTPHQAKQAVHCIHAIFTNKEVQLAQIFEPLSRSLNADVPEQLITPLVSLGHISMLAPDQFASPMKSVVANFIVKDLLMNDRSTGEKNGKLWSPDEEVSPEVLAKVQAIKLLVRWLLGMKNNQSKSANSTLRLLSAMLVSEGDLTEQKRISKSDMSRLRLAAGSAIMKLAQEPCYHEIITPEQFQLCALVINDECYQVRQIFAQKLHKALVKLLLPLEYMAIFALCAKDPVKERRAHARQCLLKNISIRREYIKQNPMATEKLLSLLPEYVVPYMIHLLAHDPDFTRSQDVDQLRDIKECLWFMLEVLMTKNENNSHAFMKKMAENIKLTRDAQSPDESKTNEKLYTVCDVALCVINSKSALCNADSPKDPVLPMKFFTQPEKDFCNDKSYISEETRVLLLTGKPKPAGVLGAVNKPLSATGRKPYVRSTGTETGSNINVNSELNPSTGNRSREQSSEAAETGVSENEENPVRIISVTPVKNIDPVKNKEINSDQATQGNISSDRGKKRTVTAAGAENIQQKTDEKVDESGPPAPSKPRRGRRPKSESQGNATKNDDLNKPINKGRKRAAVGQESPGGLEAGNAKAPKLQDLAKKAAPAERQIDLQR
UniProt Q32P28: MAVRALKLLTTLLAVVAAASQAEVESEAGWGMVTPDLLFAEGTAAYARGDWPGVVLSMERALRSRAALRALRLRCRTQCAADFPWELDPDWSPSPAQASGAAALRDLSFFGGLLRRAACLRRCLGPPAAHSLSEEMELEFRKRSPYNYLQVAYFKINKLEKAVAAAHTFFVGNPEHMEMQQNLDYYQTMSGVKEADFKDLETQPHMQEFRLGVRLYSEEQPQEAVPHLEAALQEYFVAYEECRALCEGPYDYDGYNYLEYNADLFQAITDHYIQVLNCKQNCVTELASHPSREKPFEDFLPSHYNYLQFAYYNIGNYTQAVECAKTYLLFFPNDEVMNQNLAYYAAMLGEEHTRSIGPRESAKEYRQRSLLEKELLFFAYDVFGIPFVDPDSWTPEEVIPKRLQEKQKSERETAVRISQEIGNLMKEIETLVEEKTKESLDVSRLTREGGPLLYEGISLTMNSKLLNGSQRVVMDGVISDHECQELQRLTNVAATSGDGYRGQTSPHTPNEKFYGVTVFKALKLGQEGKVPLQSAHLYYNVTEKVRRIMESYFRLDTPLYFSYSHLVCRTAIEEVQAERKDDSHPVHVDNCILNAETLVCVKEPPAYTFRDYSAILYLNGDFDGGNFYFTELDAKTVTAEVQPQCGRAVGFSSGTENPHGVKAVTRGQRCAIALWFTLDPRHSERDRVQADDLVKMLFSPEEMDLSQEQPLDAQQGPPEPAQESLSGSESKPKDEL
UniProt Q8TEW0: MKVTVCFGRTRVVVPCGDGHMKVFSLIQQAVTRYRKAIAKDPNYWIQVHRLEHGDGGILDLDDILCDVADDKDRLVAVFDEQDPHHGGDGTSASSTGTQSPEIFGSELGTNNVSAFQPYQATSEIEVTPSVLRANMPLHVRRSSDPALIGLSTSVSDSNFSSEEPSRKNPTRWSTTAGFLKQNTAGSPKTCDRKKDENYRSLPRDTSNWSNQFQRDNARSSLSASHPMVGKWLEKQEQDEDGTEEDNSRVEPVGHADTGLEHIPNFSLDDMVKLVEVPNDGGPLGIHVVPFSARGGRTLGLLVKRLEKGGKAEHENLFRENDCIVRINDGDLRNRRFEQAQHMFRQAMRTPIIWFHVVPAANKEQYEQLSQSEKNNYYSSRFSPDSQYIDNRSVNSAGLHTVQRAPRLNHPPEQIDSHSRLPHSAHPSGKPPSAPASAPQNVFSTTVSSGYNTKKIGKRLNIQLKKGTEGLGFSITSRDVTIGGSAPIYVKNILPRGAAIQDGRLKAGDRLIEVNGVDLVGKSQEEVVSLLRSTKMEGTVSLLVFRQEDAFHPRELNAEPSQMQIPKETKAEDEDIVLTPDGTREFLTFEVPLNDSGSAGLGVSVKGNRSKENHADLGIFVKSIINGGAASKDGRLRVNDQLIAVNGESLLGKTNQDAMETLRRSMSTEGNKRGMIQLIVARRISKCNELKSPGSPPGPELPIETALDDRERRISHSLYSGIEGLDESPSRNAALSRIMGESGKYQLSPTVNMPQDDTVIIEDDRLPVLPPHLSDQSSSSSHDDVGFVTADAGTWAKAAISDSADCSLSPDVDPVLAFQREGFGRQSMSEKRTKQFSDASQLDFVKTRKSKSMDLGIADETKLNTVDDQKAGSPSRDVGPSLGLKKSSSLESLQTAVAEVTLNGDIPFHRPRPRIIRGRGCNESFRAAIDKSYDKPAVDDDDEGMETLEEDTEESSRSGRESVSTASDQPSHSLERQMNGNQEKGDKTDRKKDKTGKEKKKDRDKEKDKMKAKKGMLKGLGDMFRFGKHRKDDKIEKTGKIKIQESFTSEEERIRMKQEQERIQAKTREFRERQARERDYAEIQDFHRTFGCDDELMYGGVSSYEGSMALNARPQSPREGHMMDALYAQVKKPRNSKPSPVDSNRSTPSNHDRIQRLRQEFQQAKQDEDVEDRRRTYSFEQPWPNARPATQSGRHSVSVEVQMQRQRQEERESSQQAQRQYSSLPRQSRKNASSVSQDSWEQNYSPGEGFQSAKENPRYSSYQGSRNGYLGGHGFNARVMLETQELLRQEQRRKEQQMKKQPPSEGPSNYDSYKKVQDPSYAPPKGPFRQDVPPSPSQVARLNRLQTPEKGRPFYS
UniProt P49585: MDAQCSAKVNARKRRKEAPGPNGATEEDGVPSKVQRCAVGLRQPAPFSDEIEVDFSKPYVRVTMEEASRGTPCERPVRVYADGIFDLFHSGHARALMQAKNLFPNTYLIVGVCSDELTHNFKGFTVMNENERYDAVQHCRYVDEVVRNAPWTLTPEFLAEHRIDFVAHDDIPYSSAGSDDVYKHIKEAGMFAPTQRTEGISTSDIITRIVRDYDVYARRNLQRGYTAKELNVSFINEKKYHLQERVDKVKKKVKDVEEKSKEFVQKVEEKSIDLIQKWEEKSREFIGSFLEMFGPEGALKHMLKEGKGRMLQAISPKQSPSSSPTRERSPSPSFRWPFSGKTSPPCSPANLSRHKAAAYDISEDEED
UniProt Q9BUH6: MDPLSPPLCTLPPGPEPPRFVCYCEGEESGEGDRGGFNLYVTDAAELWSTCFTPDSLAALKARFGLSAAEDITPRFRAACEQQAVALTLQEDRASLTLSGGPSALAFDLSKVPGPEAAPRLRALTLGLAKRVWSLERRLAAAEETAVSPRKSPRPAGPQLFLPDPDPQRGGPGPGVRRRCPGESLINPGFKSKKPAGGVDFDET
UniProt Q8IZL8: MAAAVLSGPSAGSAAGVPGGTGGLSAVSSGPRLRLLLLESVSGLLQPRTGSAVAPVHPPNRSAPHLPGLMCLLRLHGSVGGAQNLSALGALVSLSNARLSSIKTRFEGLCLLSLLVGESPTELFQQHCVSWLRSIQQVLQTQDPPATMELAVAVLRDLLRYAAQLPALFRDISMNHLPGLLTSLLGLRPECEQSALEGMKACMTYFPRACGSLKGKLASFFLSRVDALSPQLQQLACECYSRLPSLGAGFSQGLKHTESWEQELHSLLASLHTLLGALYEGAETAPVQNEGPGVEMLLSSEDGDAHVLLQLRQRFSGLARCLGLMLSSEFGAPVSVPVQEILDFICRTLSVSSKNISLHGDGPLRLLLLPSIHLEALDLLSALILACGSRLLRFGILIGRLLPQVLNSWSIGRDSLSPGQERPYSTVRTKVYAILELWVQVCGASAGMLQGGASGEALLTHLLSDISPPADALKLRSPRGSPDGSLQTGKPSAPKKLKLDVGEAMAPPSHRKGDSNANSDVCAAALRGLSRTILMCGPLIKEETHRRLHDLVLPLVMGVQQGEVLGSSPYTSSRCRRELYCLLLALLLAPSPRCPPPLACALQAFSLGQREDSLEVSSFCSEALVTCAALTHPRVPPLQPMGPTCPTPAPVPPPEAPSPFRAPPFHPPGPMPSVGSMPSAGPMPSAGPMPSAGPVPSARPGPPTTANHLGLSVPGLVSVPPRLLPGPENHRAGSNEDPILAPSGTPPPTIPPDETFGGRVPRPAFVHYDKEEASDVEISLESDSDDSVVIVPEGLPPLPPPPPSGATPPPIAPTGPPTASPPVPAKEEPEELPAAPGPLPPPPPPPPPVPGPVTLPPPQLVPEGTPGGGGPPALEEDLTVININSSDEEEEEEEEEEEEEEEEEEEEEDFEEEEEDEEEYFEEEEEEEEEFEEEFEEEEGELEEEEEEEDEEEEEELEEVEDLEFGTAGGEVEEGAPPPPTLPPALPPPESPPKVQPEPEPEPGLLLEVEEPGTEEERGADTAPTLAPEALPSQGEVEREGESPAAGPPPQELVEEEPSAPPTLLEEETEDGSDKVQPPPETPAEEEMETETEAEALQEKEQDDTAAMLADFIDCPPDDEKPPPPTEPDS

Compound in assay [1]: ClCC(=O)N[C@@H]1CCCc2ccccc12
The experiment in a line: log2 mean competition ratio of IA-DTB cysteine labelling (DMSO/compound) (log2 ratio); higher = stronger cysteine engagement by compound. Conditions: treatment time: 4 h, cell line lysate: HEK293T. As for the experimental part:
(§1)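 IA-DTB competitive cysteine chemoproteomics in HEK293T RIPA lysate. Lysates were treated with compound 29 or 30 at 50 or 200 µM for 4 h, then IA-DTB (500 µM, 1 h), trypsin-digested, NeutrAvidin-enriched and analysed by diaPASEF. Competition ratio = intensity DMSO / intensity compound (n=4 treated, n=64 DMSO); binding: mean log2 CR ≥ 1 and p ≤ 0.05 plus QC filters. Target is the cysteine site.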

Compound in assay [2]: ClCC(=O)N[C@H]1CCCc2ccccc12
The description is as above. The following applies: treatment time: 4 h, cell line lysate: HEK293T. As for the experimental part:
as §1

The other results are listed elsewhere or left out. The data scatter; read single values as rough.

For PEX19 C226 (UniProt P40855), the “log2 mean competition ratio” value in assay [1] (50 µM) is 0.0625; in assay [1] (200 µM) it was 0.0755; in assay [2] (50 µM) it was 0.0905; in assay [2] (200 µM), -0.0198.
Regarding PARN C205 (UniProt O95453), the “log2 mean competition ratio” value is -0.148 in assay [1] (50 µM), -0.419 in assay [1] (200 µM), -0.182 in assay [2] (50 µM) and -0.379 in assay [2] (200 µM).
Regarding PDCD6IP C524 (UniProt Q8WUM4), the “log2 mean competition ratio” value in assay [1] (50 µM) is -0.504; in assay [1] (200 µM), -0.369; in assay [2] (50 µM), 0.121; in assay [2] (200 µM) it was -0.442.
PDS5A C430 (UniProt Q29RF7): the “log2 mean competition ratio” value was 0.158 in assay [1] (50 µM), -0.39 in assay [1] (200 µM), -0.00281 in assay [2] (50 µM) and -0.369 in assay [2] (200 µM).
On the same counts, the results for PABIR1 C206 are 0.128, 0.052, 0.0955 and 0.191.
For P3H1 C645 (UniProt Q32P28), in that order: -0.106, 0.081, -0.0248 and 0.257.
On the same counts, the results for PEX19 C128 (UniProt P40855) are -0.32, 0.127, -0.043 and 0.142.
As to PCDHGC3 C792, the “log2 mean competition ratio” value in assay [1] (50 µM) was 0.274; in assay [1] (200 µM), -0.0323; in assay [2] (50 µM), 0.0906; in assay [2] (200 µM), 0.282.
In the case of PARD3 C921 (UniProt Q8TEW0), the “log2 mean competition ratio” value in assay [1] (50 µM) amounted to 0.18; in assay [1] (200 µM), 0.18; in assay [2] (50 µM), 0.378; in assay [2] (200 µM) it was 0.149.
As for PDK2 C392 (UniProt Q15119), the “log2 mean competition ratio” value was 0.281 in assay [1] (50 µM), 0.269 in assay [1] (200 µM), 0.415 in assay [2] (50 µM) and 0.175 in assay [2] (200 µM).
Consider PCYT1A C73 (UniProt P49585), for which the “log2 mean competition ratio” value in assay [1] (50 µM) was 0.00553; in assay [1] (200 µM), -0.00415; in assay [2] (50 µM), 0.0368; in assay [2] (200 µM), -0.156.
For the target PACSIN3 C421 (UniProt Q9UKS6), the “log2 mean competition ratio” value in assay [1] (50 µM) is -0.171; in assay [1] (200 µM) it was -0.0722; in assay [2] (50 µM) it was -0.0543; in assay [2] (200 µM), 0.327.
For PCCB C269 (UniProt P05166), in that order: 0.162, 0.18, 0.315 and -0.183.
For PAXX C180 (UniProt Q9BUH6), in that order: 0.0623, 0.0987, 0.0457 and 0.362.
On the same counts, the results for PELP1 C522 (UniProt Q8IZL8) are -0.0594, 0.322, 0.138 and 0.154.
